Measured values taken from patent US12642797B2, “Coated granule, solid dispersion, and preparation containing vortioxetine hydrobromide for oral taste masking” (Seasons Biotechnology (Taizhou) Co., Ltd., priority 2019, dated 2026).
Where no unit stands, none is given here, and values compare only within one read-out.

Experiments:
tongue [1] = assay: Comparative Example 1: comparison of taste of different vortioxetine salts (10 subjects, 30 attempts); details: powder equivalent to 5 mg of vortioxetine on the tongue for one minute; 30 attempts by 10 subjects
Protocol: The vortioxetine lactate salt, vortioxetine hydrobromide and vortioxetine hemihydrobromide equivalent to 5 mg of vortioxetine respectively over 100 mesh powders were put directly in front of the upper part of the tongue for one minute. There were 10 subjects in each salt-type group, and each subject randomly tried each salt-type 3 times. After trying one salt-type taste, rinsed your mouth, and try another salt-type after there was no irritation. After trying the taste, record the bitterness level and tongue irritation, spit it out a few seconds later, rinse your mouth, record the time for the irritation to subside, eat 1-1.5 hours later, and record the irritation again.

tongue [2] = assay: Comparative Example 2: comparison of taste of solid dispersion, hemihydrobromide powder and marketed drug product (20 subjects); format: in vivo, human; details: powder equivalent to 10 mg vortioxetine on the tongue for one minute
Protocol: The solid dispersion equivalent to 10 mg vortioxetine prepared in Example 9b, vortioxetine hemihydrobromide powder equivalent to 10 mg vortioxetine, and the powder compressed by vortioxetine hydrobromide marketed drug product equivalent to 10 mg of vortioxetine hydrobromide passed through 100 mesh sieve, then they were put directly in front of the upper part of the tongue for one minute. There were 20 subjects in each powder group. After trying one powder taste, rinsed your mouth, and try another powder after there was no irritation. After trying the taste, record the bitterness level and tongue irritation, spit it out a few seconds later, rinse your mouth, record the time for the irritation to subside, eat 1-1.5 hours later, and record the irritation again.

SMILES | Number of subjects who felt different levels of bitterness: Extremely bitter (tongue [1]) [times] | Number of subjects who felt different levels of bitterness: Not bitter (tongue [1]) [times] | Number of subjects who felt different levels of bitterness: Slightly bitter (tongue [1]) [times] | Number of subjects who felt different levels of bitterness: Extremely bitter (tongue [2]) | Number of subjects who felt different levels of bitterness: Not bitter (tongue [2]) | Number of subjects who felt different levels of bitterness: Slightly bitter (tongue [2])
Br.Cc1ccc(Sc2ccccc2N2CCNCC2)c(C)c1.Cc1ccc(Sc2ccccc2N2CCNCC2)c(C)c1 [hemihydrobromide] | 12 | 0 | 18 | – | – | –
Br.Cc1ccc(Sc2ccccc2N2CCNCC2)c(C)c1.Cc1ccc(Sc2ccccc2N2CCNCC2)c(C)c1 [Vortioxetine hemihydrobromide powder] | – | – | – | 9 | 0 | 11
Br.Cc1ccc(Sc2ccccc2N2CCNCC2)c(C)c1 [Monosalt hydrobromate] | 28 | 0 | 2 | – | – | –
CC(O)C(=O)O.Cc1ccc(Sc2ccccc2N2CCNCC2)c(C)c1 [lactate salt] | 29 | 0 | 1 | – | – | –
